# Some of the results follow.
# Chains of the proteins cited; added tags and fusions are not shown. Lines headed by an entry give the natural chain unless they say otherwise; changes in a name come on top.
# UniProt Q9Y2B2: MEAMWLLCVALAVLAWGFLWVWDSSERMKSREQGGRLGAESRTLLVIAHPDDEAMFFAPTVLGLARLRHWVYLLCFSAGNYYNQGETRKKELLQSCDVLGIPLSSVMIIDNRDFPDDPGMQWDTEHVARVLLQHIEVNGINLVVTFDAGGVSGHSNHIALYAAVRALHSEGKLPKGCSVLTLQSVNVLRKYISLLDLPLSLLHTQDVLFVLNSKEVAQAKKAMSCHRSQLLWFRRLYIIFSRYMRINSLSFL
# UniProt Q99572: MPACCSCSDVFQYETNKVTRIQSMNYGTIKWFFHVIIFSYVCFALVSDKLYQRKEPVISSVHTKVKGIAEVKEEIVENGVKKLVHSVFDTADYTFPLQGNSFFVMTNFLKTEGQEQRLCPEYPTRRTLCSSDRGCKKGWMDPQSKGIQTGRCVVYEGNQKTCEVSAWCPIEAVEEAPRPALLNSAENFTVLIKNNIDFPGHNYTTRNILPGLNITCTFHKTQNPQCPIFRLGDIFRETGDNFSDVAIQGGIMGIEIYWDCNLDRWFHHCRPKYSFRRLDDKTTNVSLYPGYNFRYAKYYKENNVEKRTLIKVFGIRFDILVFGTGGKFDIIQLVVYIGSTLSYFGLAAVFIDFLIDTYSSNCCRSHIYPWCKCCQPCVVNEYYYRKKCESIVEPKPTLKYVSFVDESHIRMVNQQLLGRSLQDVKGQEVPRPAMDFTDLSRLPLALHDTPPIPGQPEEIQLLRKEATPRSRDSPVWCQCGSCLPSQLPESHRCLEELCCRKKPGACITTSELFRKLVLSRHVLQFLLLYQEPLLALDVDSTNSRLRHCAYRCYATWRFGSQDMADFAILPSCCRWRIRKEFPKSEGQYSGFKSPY
# UniProt P48739: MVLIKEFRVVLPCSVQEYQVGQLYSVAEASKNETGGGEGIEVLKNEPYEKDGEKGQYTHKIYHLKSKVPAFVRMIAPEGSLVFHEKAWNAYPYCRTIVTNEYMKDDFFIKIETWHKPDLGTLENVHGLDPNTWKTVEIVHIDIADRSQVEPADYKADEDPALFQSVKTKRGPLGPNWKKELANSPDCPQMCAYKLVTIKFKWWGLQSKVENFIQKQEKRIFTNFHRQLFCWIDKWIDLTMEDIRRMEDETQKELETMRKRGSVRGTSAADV
# UniProt P53350, whole entry: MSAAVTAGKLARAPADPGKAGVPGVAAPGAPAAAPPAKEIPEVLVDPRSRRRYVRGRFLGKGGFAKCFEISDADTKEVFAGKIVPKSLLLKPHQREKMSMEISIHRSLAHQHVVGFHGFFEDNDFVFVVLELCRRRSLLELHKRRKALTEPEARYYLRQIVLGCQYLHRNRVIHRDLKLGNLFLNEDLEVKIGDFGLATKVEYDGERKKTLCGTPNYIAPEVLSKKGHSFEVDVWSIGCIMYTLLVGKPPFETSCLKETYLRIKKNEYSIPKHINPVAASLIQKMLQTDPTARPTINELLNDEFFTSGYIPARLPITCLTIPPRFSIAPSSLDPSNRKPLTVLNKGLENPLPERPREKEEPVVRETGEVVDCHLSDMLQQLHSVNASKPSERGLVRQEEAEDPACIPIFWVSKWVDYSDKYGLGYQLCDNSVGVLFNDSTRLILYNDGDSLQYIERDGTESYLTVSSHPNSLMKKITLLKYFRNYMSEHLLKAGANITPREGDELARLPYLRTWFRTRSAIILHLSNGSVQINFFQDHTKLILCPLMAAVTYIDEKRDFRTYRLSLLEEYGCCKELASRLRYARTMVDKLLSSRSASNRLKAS
# UniProt Q99571: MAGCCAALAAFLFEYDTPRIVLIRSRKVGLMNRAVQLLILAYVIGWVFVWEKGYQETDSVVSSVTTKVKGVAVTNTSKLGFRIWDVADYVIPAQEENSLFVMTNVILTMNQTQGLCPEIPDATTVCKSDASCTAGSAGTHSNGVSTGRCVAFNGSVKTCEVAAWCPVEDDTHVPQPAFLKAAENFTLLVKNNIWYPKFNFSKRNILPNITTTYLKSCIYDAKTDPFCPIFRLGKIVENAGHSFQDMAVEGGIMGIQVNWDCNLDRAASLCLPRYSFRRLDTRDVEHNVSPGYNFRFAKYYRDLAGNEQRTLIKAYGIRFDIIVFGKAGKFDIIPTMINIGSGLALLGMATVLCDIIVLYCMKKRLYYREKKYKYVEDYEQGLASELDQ
# UniProt Q9Y237, whole entry: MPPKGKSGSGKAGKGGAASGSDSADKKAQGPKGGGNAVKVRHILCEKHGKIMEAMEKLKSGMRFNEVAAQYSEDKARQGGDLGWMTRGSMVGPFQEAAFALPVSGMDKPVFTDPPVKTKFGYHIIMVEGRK
# UniProt P42336, whole entry: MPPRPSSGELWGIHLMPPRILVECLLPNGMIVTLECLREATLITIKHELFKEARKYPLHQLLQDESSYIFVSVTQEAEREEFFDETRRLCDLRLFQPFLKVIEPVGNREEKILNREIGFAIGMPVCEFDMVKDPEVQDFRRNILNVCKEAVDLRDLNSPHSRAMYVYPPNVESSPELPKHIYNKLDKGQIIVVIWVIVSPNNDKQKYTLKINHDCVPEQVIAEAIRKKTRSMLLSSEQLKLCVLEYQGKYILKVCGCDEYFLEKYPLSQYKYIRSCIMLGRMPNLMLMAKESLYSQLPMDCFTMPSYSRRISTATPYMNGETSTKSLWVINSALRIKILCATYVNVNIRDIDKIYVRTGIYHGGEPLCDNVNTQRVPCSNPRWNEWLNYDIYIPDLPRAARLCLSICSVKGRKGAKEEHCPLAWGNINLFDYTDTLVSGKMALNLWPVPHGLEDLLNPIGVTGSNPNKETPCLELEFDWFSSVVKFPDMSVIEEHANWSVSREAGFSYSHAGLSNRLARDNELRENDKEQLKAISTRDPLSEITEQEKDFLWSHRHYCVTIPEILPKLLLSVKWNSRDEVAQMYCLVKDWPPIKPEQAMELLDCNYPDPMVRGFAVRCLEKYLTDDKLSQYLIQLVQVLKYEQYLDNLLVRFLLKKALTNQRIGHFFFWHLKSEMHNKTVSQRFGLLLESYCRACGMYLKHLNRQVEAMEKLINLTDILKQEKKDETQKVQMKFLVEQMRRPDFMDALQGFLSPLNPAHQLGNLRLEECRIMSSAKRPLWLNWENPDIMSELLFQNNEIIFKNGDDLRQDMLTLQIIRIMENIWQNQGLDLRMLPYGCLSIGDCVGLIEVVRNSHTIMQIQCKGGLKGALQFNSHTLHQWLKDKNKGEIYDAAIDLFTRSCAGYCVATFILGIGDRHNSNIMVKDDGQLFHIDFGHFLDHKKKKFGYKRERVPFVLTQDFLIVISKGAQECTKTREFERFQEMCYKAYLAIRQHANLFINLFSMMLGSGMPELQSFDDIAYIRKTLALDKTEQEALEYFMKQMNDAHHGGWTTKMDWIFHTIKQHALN
# UniProt O00764: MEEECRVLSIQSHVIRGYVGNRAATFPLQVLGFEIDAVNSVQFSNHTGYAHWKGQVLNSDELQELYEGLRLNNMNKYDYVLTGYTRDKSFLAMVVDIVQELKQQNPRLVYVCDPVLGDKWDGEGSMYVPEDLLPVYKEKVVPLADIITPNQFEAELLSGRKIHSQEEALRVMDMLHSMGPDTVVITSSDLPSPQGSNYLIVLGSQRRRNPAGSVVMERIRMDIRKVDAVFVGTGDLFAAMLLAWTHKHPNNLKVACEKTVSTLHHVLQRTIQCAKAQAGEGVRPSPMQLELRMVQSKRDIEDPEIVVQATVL
# UniProt Q96FW1, whole entry: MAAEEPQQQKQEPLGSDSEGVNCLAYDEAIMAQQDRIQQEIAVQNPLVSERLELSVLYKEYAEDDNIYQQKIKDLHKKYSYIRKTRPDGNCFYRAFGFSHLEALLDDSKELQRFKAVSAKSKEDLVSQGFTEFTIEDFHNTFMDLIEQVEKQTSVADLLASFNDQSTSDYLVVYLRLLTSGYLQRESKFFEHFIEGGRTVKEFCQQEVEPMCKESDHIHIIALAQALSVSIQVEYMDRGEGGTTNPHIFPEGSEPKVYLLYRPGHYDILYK
# UniProt Q6ZUJ8: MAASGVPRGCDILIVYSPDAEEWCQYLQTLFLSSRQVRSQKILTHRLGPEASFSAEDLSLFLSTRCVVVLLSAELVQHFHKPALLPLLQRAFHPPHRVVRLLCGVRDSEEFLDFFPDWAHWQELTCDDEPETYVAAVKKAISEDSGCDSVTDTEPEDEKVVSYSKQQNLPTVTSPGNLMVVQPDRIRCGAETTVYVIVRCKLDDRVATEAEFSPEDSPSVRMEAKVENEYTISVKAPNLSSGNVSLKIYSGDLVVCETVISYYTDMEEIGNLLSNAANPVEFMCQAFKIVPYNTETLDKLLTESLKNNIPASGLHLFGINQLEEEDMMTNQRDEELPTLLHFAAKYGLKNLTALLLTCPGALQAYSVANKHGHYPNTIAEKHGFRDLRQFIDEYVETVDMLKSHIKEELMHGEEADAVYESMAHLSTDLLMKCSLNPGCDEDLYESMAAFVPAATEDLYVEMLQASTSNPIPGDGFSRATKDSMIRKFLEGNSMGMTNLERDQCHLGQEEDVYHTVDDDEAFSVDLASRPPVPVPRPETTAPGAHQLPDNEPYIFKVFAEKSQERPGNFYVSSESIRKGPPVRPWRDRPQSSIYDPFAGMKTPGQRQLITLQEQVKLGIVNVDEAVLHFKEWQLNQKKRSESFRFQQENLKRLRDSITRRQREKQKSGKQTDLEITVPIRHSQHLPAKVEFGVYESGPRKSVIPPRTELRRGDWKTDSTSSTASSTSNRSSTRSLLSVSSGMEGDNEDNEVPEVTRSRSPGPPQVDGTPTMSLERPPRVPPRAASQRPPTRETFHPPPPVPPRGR
# UniProt O75521: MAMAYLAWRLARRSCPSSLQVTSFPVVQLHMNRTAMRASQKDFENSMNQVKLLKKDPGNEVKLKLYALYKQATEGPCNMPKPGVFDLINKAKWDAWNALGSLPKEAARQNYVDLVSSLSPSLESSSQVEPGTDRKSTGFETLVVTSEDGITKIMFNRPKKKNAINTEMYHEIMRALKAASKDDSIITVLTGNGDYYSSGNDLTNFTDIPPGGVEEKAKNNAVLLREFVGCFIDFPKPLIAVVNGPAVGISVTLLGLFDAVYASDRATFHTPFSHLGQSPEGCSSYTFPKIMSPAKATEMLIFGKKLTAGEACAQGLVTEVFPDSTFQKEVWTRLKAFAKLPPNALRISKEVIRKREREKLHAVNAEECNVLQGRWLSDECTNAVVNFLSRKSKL
# UniProt Q13438: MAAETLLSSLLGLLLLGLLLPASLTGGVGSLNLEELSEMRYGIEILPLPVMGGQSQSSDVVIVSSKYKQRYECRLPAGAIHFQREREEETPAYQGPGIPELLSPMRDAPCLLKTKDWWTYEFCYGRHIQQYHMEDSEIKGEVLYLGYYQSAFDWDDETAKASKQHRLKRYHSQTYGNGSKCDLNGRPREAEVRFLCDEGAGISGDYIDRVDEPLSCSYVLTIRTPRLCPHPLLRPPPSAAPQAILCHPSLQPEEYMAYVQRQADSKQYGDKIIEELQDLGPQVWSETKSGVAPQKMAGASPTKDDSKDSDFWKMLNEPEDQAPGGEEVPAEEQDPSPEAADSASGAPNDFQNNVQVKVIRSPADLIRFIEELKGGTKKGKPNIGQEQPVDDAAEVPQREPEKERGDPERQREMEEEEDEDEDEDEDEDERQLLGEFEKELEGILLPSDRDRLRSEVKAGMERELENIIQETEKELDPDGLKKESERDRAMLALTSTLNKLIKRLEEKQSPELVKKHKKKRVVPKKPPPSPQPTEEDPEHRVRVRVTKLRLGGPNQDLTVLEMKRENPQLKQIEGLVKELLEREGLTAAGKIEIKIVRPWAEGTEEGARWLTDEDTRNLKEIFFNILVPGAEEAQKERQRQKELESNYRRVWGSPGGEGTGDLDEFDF
# UniProt Q9NQP4, whole entry: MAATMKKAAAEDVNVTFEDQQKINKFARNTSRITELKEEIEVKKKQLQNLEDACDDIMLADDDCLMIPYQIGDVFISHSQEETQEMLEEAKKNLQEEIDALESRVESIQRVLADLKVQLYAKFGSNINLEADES
# UniProt O43252: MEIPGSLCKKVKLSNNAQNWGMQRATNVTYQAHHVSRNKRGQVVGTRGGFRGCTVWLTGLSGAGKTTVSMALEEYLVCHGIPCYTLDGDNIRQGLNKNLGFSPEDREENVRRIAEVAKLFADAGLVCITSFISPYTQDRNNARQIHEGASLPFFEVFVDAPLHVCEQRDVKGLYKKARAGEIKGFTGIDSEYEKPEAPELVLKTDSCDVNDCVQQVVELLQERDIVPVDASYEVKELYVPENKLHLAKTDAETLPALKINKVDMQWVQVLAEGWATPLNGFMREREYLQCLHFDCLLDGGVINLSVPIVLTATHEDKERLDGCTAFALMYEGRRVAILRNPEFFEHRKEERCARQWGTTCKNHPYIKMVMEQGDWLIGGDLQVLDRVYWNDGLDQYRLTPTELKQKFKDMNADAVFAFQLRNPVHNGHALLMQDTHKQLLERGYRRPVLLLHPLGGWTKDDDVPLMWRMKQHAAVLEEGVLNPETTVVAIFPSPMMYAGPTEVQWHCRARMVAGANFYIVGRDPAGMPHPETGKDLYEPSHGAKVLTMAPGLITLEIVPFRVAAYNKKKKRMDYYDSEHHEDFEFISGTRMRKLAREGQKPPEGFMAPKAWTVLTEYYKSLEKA
# Compound: COc1ccc(Cn2ccc3cc(C)c(C(=O)NO)cc32)cc1
# Assay: dose-dependent thermal stabilisation call (2D-TPP, DLPTP, 10% FDR) (binary (1 = stabilised)); higher = stabilised by the compound
# Details: system: HL-60 intact cells; concentration range 0.04-10 µM
# Description: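 2D thermal proteome profiling in intact HL-60 cells treated with BRD-3811 (0, 0.04, 0.29, 2, 10 uM) for 90 min at 37 C, then heated 3 min at one of 12 temperatures (42-63.9 C). Soluble protein was quantified by TMT10 MS. The value is the DLPTP call of the paper: dose-dependent thermal stabilisation over all temperatures at 10% FDR (F-test of a dose-response against a flat model); one experiment, one call per tested protein.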
row,Target,dose-dependent thermal stabilisation call
1,PAFAH1B1 (UniProt P43034),inactive: 0
2,PIGL (UniProt Q9Y2B2),inactive: 0
3,P2RX7 (UniProt Q99572),inactive: 0
4,OSBPL2 (UniProt Q9H1P3),inactive: 0
5,PITPNB (UniProt P48739),inactive: 0
6,PCIF1 (UniProt Q9H4Z3),inactive: 0
7,PDIA5 (UniProt Q14554),inactive: 0
8,PGAP1 (UniProt Q75T13),inactive: 0
9,PLK1 (UniProt P53350),inactive: 0
10,PARP4 (UniProt Q9UKK3),inactive: 0
11,PAK2 (UniProt Q13177),inactive: 0
12,P2RX4 (UniProt Q99571),inactive: 0
13,PCNXL3 (UniProt Q9H6A9),inactive: 0
14,PIN4 (UniProt Q9Y237),inactive: 0
15,OPA1 (UniProt O60313),inactive: 0
16,PDIA4 (UniProt P13667),inactive: 0
17,PIK3CA (UniProt P42336),inactive: 0
18,PAIP1 (UniProt Q9H074),inactive: 0
19,PLCB3 (UniProt Q01970),inactive: 0
20,PARP16 (UniProt Q8N5Y8),inactive: 0

# Random excerpt: 2 entries already listed
row,Target,dose-dependent thermal stabilisation call
9,PLK1 (UniProt P53350),inactive: 0
5,PITPNB (UniProt P48739),inactive: 0

# Continued.

row,Target,dose-dependent thermal stabilisation call
1,PARVB (UniProt Q9HBI1),inactive: 0
2,PDXK (UniProt O00764),inactive: 0
3,OTUB1 (UniProt Q96FW1),inactive: 0
4,PIK3AP1 (UniProt Q6ZUJ8),inactive: 0
5,PECI (UniProt O75521),inactive: 0
6,OXSR1 (UniProt O95747),inactive: 0
7,PEX3 (UniProt P56589),inactive: 0
8,PFN1 (UniProt P07737),inactive: 0
9,PCNP (UniProt Q8WW12),inactive: 0
10,PLAUR (UniProt Q03405),inactive: 0
11,OS9 (UniProt Q13438),inactive: 0
12,PHC2 (UniProt Q8IXK0),inactive: 0
13,PFDN4 (UniProt Q9NQP4),inactive: 0
14,PARP10 (UniProt Q53GL7),inactive: 0
15,PARP1 (UniProt P09874),inactive: 0
16,PFTK1 (UniProt O94921),inactive: 0
17,PLEKHM2 (UniProt Q8IWE5),inactive: 0
18,OSBPL11 (UniProt Q9BXB4),inactive: 0
19,PDS5A (UniProt Q29RF7),inactive: 0
20,PAPSS1 (UniProt O43252),inactive: 0

# From the supplement of paper PMC7666118
